In PubChem BioAssay AID624297 (National Center for Advancing Translational Sciences (NCATS), 2012):
Hit rate of the full screen: of about 340,000 compounds, about 6,200 (1.8%) were called active. Inconclusive results, whose numbers are uncertain, are shown with a selection of clear calls. Calls come from the whole dose curve; as a rule, active = well fitted activation curve with a large enough effect; inconclusive = small, poorly fitted or top-dose-only effect; inactive = no such curve, though single readings can be large or run the other way. A potency beside an inconclusive call is a rough fit, not a confirmed value.

Assay: A quantitative high throughput screen for small molecules that induce DNA re-replication in SW480 colon adenocarcinoma cells. For re-replication activation: % of control where 0% means no effect. Note: nearly all actives have a fitted effect of over 55% in size.
Conditions: Hoechst DNA content imaging, 48 h; re-replication activation: at 46.1 µM (top of the series) unless noted
Summary of the method: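 Treated cells incubate 48 hr (37 C, 5% CO2), are stained 40 min with Hoechst, and nuclear fluorescence is enumerated; a rise in nuclei with high DNA signal marks re-replication.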
Potency is the fitted concentration of half-maximal effect.

SMILES	Potency	re-replication activation
S=C(NCCCN1CCOCC1)N1CCN(c2nc(-c3ccc(Cl)cc3)cs2)CC1	inconclusive: 29.1 µM [activator, single point]	–
COc1cc(OC)cc(C(=O)NCCNc2nc3cc(C)cc(C)c3cc2C#N)c1	inconclusive: 29.1 µM [activator, single point]	–
O=C(N/N=C/c1ccccn1)c1cc(-c2ccc(Cl)cc2)nc2ccccc12	inconclusive: 20.6 µM [activator, single point]	–
COc1ccc2oc(=Nc3ccccc3)c(-c3nc4ccccc4[nH]3)cc2c1	–	inactive: -70.8%
O=C(Nc1ccc(-c2nc3c(ccc4ccccc43)o2)cc1)c1ccco1	inconclusive: 20.6 µM [activator, partial curve]	–
O=C(O)CCCCCNc1ncnc2ccc(Br)cc12	inconclusive: 20.6 µM [activator, single point]	–
O=C(Nc1nnc(C2=COCCO2)o1)c1ccc(Cl)cc1	inconclusive: 29.1 µM [activator, single point]	–
CC1([N+](=O)[O-])COC(c2cccc3ccccc23)OC1 (stereo not given)	inconclusive: 32.6 µM [activator, partial curve, poor fit]	–
Cc1cc(C)cc(OCCN2CCOCC2)c1	–	inactive: 4%
CCc1ccccc1Nc1cc(C(=O)NCc2ccccn2)c2ccccc2n1	inconclusive: 18.4 µM [activator, single point]	–
CCN1CCN(CC(=O)Nc2c(OC)cccc2OC)CC1	–	inactive: -4.66%
N#C/C(=C\c1ccco1)Sc1nc2ccccc2s1	inconclusive: 20.6 µM [activator, single point]	–
Cn1c(SCc2ccccc2)nnc1C1CCCNC1 (stereo not given)	–	inactive: 1.21%
CCCn1nc(NC(=O)COC)c2cc3cccc(C)c3nc21	–	inactive: 2.98%
COCCn1c(N)c(N(Cc2ccccc2)C(=O)COc2ccccc2F)c(=O)[nH]c1=O	–	inactive: -9.28%
Cc1ccc(/C=N/NC(=O)CN(Cc2ccccc2)S(=O)(=O)c2ccc3c(c2)OCCO3)cc1	inconclusive: 29.1 µM [activator, single point]	–
Cc1cccn2c(=O)c3cc(C(=O)NCc4ccc(F)cc4)c(=N)n(CCCN4CCOCC4)c3nc12	active: 8.2 µM	–
Cc1ccc([N+](=O)[O-])cc1N1C(=O)CS/C1=N\NC(=O)c1cccnc1	inconclusive: 0.126 µM [activator, partial curve, poor fit]	–
O=C(NCc1cccc(Br)c1)c1cc(-c2ccccc2)nn1CC1CC(c2cccnc2)=NO1 (stereo not given)	inconclusive: 5.8 µM [activator, full curve, poor fit]	–
CSc1ccc(NC(=O)Nc2cccn(Cc3ccccc3F)c2=O)cc1	inconclusive: 25.9 µM [activator, partial curve, poor fit]	–

2 entries from above, as labelled records.
Cn1c(SCc2ccccc2)nnc1C1CCCNC1 (stereo not given)
  re-replication activation: inactive: 1.21%
CCCn1nc(NC(=O)COC)c2cc3cccc(C)c3nc21
  re-replication activation: inactive: 2.98%
